From paper doi:10.1101/2024.09.09.612116
Results are given in words; binding and its absence hold for the method and conditions named. In cells and extracts the contact can be indirect. Some entries that bind do so weakly or less than the wild type. Where a sequence is shown, tags or fusion partners need not be part of it. Each block holds one molecule with its values, some of them ahead of it.

By UniProt entry, the sequences of proteins in these tests, tags left out.
UniProt O75530: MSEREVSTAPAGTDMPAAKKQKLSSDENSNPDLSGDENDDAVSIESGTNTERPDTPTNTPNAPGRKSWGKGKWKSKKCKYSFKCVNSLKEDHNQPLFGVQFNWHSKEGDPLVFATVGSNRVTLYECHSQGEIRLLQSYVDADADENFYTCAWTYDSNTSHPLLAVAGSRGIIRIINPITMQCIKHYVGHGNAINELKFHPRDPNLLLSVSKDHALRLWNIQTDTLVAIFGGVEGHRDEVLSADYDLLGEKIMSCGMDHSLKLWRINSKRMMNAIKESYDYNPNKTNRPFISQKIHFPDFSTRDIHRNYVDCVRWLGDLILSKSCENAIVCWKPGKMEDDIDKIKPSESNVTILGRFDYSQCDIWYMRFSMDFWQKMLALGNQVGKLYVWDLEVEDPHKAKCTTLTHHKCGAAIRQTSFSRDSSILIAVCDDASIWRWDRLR

How the values were obtained:
[1] = target: T1, GFP-tagged DEK (pcDNA5/FRT/TO DEK-His-GFP, LAP-tag DEK fusion) (UniProt P35659); experiment: co-IP
T1 sequence: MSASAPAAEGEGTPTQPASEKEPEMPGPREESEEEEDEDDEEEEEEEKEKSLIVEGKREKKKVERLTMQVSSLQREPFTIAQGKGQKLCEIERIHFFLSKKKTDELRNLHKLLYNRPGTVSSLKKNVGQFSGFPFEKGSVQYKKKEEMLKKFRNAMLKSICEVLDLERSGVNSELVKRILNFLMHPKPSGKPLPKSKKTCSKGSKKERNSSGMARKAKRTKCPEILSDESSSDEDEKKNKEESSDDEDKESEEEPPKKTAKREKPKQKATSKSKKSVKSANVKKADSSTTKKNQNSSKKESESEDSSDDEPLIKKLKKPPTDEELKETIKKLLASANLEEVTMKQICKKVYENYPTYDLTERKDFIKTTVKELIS

[2] = target: T2, GFP-tagged DEK (pcDNA5/FRT/TO DEK-His-GFP, LAP-tag DEK fusion), P35659; experiment: co-IP; settings: remark: other sources report otherwise
T2 chain: T1 sequence

binding [1]: binds
Molecule: EED (PRC2 complex member) of HEK293 cells (from UniProt O75530 1-441)

binding [2]: binds
B1: endogenous DEK (untagged) of HEK293 cells, P35659 1-375 (protein)
chain: T1 sequence
